# In the supplement of paper PMC8551327:
# Counter-ions that a name gives are not always drawn. The list shows a part of the results. No stated cut-off is given here; in the data, active = 1.25 or more and inactive = the rest. Single values are uncertain, as repeats are few or missing.
# Tested on: Kcc2-LUC knock-in mouse primary cortical neurons (Kcc2 promoter reporter)
# Assay: Kcc2 promoter-driven luciferase activity relative to vehicle control (fold of vehicle (ratio)); higher = stronger Kcc2 promoter activation (Kcc2 expression enhancer)
# Details: 100 nM; 48 h
row,Structure (SMILES),Kcc2 promoter-driven luciferase activity
1,O=C1NC(=O)[C@H]2[C@H]3C=C[C@@H]([C@@H]12)[C@@H]1[C@H]2C(=O)NC(=O)[C@H]2[C@H]31 [Mitindomide],inactive: 0.64
2,"COc1cc2cc3c4cc(OC)c(OC)cc4cc[n+]3c(C)c2cc1OC.O=C(O)CS(=O)(=O)[O-] [Coralyne sulfoacetate, ; Monoanhydride with sulfuric acid]",inactive: 0.666
3,N#CC(C#N)=Cc1ccc(Oc2ccccc2)cc1 [2-[(4-phenoxyphenyl)methylidene]propanedinitrile],inactive: 1.05
4,O=C1c2ccccc2C(=O)c2c(O)c(O)cc(O)c21,inactive: 1.15
5,O=C(CC(=O)c1ccccc1NC1=Cc2ccccc2C(=O)C1=O)C(=O)NC1=C(Cl)C(=O)c2ccccc2C1=O,inactive: 1
6,CC(C)(C)CC(C)(C)NCC(O)COc1ccc(C(C)(C)c2ccc(OCC(O)CNC(C)(C)CC(C)(C)C)cc2)cc1 (stereo unspecified),inactive: 1.16
7,"CN(C)CCNC(=O)c1cccc2[nH]c(-c3ccncc3)nc12 [1H-Benzimidazole-4-carboxamide, hydrochloride]",inactive: 1.13
8,CCN(CC)CCOC(=O)Cc1cccc2c(=O)cc(-c3ccccc3)oc12 [Mitoflaxone 2-(diethylamino)ethyl ester hydrochloride],inactive: 1
9,CC(CN1CC(=O)NC(=O)C1)N1CC(=O)NC(=O)C1 (stereo unspecified) [Razoxane],inactive: 0.24
10,CN(C)c1ccc(/C=C2\Cc3ccccc3C2=O)cc1Br [2-(3-Bromo-4-(dimethylamino)benzylidene)-1-indanone],inactive: 0.89
11,"CC(=O)OCCN1c2ccccc2Sc2cnccc21 [2-Pyrido[3,4-b][1,4]benzothiazin-5-ylethyl acetate]",inactive: 0.77
12,CC(C)(O)CCC(O)C(C)(O)C1CCC2(O)C3=CC(=O)C4(O)CC(O)C(O)CC4(C)C3CCC12C.CC(C)(O)CCC(O)C(C)(O)C1CCC2(O)C3=CC(=O)C4CC(O)C(O)CC4(C)C3CCC12C (stereo unspecified) [Polypodies A & B],inactive: 1.16
13,CC(=O)/C(=C\c1cccc([N+](=O)[O-])c1)C(=O)Nc1ccccc1C,active: 1.44
14,CO[C@H]1C[C@@H]2CC[C@@H](C)[C@@](O)(O2)C(=O)C(=O)N2CCCC[C@H]2C(=O)O[C@H]([C@H](C)C[C@@H]2CC[C@@H](O)[C@H](OC)C2)CC(=O)[C@H](C)/C=C(\C)[C@@H](O)[C@@H](OC)C(=O)[C@H](C)C[C@H](C)/C=C/C=C/C=C/1C [Rapamycin],inactive: 0.01
15,"C/C(=N\NC(=S)N(C)C)c1ccccn1.[Cu][Br] [Copper,N-dimethyl-hydrazinecarbothioamidato-N,N,S]-]",inactive: 1.07
16,COc1ccc(/C=C\c2cc(OC)c(OC)c(OC)c2)cc1OP(=O)(O)O [Combretastatin A-4 Phosphate Ammonium salt],inactive: 1.21
17,O=C(O)CCCCCCCC(O)C(O)CCCCCCO (stereo unspecified) [Aleuritic Acid],inactive: 1.1
18,O=Cc1cc([N+](=O)[O-])no1 [3-Nitro-5-formylisoxazole],inactive: 1
19,O=C(O)c1ccccc1-c1ccccc1C(=O)Nc1ccc2c(c1)Cc1ccccc1-2 [2-[2-(9H-fluoren-2-ylcarbamoyl)phenyl]benzoic acid],inactive: 0.5
20,"[O-][S+]1c2ccccc2N=C(c2cccc3ccccc23)CC1c1cccc2ccccc12 (stereo unspecified) [2,4-dinaphthalen-1-yl-2,3-dihydro-1]",inactive: 1
21,"NC(N)=NCCCS(=O)(=O)Nc1ccc(Nc2c3ccccc3nc3cc([N+](=O)[O-])ccc23)cc1 [1-Propanesulfonamide, dihydrochloride]",inactive: 1
22,O=C1C=CC(CC(=O)c2ccc3ccccc3c2)O1 (stereo unspecified) [2-(2-naphthalen-2-yl-2-oxoethyl)-2H-furan-5-one],inactive: 0.42
23,CC(=O)CCCCn1c(=O)c2c(ncn2C)n(C)c1=O [Pentoxifylline],inactive: 0.959
24,COc1ccc2nc(C)cc(NCCCCCCCCCNc3cc(C)nc4ccc(OC)cc34)c2c1,inactive: 0.76
25,C=CC(=O)N1C/C(=C\c2ccc([N+](=O)[O-])cc2)C(=O)/C(=C/c2ccc([N+](=O)[O-])cc2)C1,inactive: 1.21
26,C=C(C)[C@@H]1CC[C@]2(CO)CC[C@]3(C)[C@H](CC[C@@H]4[C@@]5(C)CC[C@H](O)C(C)(C)[C@@H]5CC[C@]43C)[C@@H]12 [Betulinic alcohol],inactive: 0.26

# Reformatted as tab-separated lines: 2 of the compounds above.
row	Structure (SMILES)	Kcc2 promoter-driven luciferase activity
7	CN(C)CCNC(=O)c1cccc2[nH]c(-c3ccncc3)nc12 [1H-Benzimidazole-4-carboxamide, hydrochloride]	inactive: 1.13
8	CCN(CC)CCOC(=O)Cc1cccc2c(=O)cc(-c3ccccc3)oc12 [Mitoflaxone 2-(diethylamino)ethyl ester hydrochloride]	inactive: 1
